Test results from patent US9976170B2, “Method for evaluating bacterial cell wall integrity” (UNIVERSIDAD AUTONOMA DE MADRID, priority 2011, dated 2018).
For at least one compound, name, drawing or mass did not settle the structure.

Legend:
[1] = tested on: imipenem-sensitive A. baumanii strain; assay: microgranular-fibrillar background in microgels stained with SYBR Gold (Example 8); assay type: cell-based, Acinetobacter baumannii; conditions: 0.76 μg/mL, 60 minutes
[2] = tested on: Acinetobacter baumannii, imipenem- and ceftazidime-resistant strain; assay: technique for evaluating cell wall integrity (lysis solution, nucleoid release, fluorescence microscopy); assay type: cell-based; conditions: 60 minutes
Procedure: Different bacterial strains grown on a dish with Mueller-Hinton medium for 24 hours were subsequently exposed to a β-lactam antibiotic for 60 minutes in Mueller-Hinton liquid medium at 37° C., under stirring, and were finally processed by means of the technique for evaluating cell wall integrity according to the present invention.
The doses of antibiotic applied were 0, the MIC determined in the Microbiology Laboratory by means of the microdilution and/or E-test technique, and those of the cutoff points of sensitivity and resistance indicated by the Clinical and Laboratory Standards Institute (CLSI) for each strain. A dose 10 times higher than the MIC was also used.

## C[C@@H](O)[C@H]1C(=O)N2C(C(=O)O)=C(SCCN=CN)C[C@H]12 [imipenem]
[1]
  microgranular-fibrillar background in the preparation: showed the background
[2]; 16 μg/mL
  background of extracellular DNA fragments: no background
[2]; 320 μg/mL
  background of extracellular DNA fragments: subtle background
